Laboratory results taken from paper PMC6925160.
No constants are given. Whether binding was seen depends on the method and setting. In cells and extracts the contact can be indirect. Some results given as binding are weak or reduced against the parent protein; the word gives no strength.

Sequences of proteins named here, by UniProt entry; tags and fusion partners are left off.
UniProt P39447: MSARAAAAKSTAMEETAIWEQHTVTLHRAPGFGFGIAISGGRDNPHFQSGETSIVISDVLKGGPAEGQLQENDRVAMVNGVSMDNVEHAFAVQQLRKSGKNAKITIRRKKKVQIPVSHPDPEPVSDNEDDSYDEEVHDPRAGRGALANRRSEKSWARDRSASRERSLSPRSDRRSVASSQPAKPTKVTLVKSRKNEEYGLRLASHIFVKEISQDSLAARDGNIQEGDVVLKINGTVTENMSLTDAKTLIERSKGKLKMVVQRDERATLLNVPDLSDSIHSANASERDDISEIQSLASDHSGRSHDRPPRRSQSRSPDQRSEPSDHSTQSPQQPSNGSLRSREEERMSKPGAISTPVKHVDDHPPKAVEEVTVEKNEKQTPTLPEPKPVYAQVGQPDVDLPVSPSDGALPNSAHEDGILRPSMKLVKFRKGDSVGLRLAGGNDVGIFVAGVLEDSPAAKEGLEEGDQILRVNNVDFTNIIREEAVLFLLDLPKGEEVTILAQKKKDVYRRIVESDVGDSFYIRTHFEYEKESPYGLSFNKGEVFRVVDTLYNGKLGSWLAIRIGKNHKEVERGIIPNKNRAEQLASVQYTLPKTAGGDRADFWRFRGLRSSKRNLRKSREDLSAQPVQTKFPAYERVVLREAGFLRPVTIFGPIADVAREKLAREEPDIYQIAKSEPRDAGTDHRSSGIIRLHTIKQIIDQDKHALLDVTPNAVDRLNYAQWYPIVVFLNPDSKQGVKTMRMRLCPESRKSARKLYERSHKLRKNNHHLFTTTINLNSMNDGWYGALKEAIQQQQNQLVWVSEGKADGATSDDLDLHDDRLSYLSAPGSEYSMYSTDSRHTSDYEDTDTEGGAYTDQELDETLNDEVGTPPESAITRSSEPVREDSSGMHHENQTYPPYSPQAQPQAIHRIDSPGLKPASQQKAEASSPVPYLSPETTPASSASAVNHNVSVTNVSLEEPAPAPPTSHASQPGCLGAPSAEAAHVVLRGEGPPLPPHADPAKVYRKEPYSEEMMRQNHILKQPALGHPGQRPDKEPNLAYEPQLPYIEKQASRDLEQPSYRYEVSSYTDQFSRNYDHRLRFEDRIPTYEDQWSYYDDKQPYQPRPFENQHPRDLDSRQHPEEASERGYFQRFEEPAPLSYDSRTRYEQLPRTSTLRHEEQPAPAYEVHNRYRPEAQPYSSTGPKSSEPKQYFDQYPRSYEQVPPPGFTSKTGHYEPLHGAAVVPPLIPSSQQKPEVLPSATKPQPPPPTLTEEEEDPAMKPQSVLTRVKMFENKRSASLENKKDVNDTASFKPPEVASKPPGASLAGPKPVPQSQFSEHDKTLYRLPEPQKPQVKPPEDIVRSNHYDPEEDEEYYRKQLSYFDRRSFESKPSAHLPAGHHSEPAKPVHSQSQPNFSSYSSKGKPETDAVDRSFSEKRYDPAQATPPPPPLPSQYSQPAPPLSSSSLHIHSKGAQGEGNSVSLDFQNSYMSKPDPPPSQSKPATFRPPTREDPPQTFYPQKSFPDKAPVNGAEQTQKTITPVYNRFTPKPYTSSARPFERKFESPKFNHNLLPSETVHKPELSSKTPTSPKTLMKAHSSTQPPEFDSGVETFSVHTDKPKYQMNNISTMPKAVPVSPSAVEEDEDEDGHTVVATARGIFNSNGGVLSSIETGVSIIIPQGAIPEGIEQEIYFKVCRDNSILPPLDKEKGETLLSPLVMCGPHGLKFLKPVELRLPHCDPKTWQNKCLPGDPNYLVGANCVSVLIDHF
UniProt Q9QZQ1: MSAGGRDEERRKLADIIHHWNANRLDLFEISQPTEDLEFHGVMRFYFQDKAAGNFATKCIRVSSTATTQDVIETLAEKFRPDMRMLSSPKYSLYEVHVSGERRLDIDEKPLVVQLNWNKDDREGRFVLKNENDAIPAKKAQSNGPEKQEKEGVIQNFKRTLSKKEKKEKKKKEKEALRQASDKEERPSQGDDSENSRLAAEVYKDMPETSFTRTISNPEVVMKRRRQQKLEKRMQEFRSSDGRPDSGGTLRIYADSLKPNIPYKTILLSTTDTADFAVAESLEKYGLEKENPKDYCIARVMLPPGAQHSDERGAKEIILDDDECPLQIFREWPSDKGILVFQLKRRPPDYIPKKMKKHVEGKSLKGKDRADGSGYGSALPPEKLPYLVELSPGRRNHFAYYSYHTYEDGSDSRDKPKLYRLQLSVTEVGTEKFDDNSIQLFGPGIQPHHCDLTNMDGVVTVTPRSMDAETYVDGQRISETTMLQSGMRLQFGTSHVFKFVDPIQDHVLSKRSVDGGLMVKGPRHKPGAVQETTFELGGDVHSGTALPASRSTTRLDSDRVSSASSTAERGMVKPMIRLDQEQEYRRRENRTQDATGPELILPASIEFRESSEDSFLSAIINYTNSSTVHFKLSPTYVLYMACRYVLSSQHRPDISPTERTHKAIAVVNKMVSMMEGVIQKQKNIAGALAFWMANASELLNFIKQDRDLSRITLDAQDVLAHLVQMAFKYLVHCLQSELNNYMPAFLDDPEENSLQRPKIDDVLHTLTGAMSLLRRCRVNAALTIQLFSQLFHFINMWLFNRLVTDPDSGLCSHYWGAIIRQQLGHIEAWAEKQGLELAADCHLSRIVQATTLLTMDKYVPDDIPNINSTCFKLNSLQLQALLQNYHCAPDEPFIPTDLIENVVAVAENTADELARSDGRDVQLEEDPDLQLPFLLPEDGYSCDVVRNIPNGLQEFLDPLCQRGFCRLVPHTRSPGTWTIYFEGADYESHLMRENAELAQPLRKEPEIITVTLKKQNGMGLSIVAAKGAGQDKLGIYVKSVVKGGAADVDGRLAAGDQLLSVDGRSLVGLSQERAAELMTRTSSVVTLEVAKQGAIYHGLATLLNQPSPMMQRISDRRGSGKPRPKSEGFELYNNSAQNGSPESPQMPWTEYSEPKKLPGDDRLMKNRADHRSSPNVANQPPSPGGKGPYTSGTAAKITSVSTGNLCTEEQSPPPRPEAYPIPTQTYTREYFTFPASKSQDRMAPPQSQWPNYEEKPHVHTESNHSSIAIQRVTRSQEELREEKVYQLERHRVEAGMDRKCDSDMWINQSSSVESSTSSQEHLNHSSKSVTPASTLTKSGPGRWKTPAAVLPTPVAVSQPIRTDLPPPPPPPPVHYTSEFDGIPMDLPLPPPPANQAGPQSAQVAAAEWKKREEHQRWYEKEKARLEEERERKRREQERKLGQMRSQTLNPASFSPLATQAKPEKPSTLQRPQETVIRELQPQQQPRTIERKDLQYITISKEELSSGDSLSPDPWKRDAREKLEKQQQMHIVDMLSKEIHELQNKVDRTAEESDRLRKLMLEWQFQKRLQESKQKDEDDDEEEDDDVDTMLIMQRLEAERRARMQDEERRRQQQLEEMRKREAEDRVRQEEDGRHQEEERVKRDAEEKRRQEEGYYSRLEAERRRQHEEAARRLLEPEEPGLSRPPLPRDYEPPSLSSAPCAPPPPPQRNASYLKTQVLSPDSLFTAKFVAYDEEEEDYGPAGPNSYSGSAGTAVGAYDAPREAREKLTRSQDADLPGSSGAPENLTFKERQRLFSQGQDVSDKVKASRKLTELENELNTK

Columns and labels:
[1] = target: zonula occludens‐1 (ZO‐1) (mouse (endogenous in L cells)) (UniProt P39447); assay: co-IP; L cells infected with EPECΔespF (MOI 5) for 4 hr; RIPA lysate precipitated with rabbit anti-ZO-1 antibody and protein A-agarose; blot for afadin
[2] = target: zonula occludens‐1 (ZO‐1) (mouse (endogenous in L cells)) (UniProt P39447); assay: co-IP; L cells infected with wild-type EPEC (MOI 5) for 1, 2, 3 and 4 hr; RIPA lysate (750 µg protein) precipitated with 1 µg rabbit anti-ZO-1 polyclonal antibody and protein A-agarose, 4°C; washes with RIPA, high-salt (500 mM NaCl) and low-salt buffer; blots for ZO-1, afadin and EspF
[3] = target: zonula occludens‐1 (ZO‐1) (mouse (endogenous in L cells)) (UniProt P39447); assay: co-IP; as a1, the 4 hr time point of wild-type EPEC infection alone (the complex is barely left)

binding [1]	binding [3]	Substance	binding [2]
binds weakly	binds weakly	afadin (from UniProt Q9QZQ1 1-1820)	binds
		EspF from enteropathogenic Escherichia coli (EPEC) E2348/69 (from UniProt B7UM88 1-206)	no binding
